Among the data in PubChem BioAssay AID2685 (National Center for Advancing Translational Sciences (NCATS), 2010) are cell number change and AC50 values, retold here.

The list shows a part of the results. The main result of the screen is listed elsewhere. These columns were measured beside it and carry no call. Compounds called inactive in the main read-out are mostly missing here. Words in brackets tell the shape of the fitted curve; partial curves, single points and poor fits give uncertain potencies.

This assay can be described thus: qHTS Assay for Lipid Storage Modulators in Drosophila S3 Cells.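 For cell number change: cells counted by Cell Tracker Red CMTPX staining in the red channel.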 As to conditions: BODIPY lipid droplet fluorescence, 18-24 h; for cell number change: measured here: cell count max response, cells fed with added oleic acid. Summed up: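 Drosophila S3 cells got compounds at several concentrations plus oleic acid (400 uM solution). Laser-scanning cytometry with 488 nm excitation read lipid droplets at 500-530 nm and cells at 575-640 nm. Percent activity was relative to 20 uM Triacsin C.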

[1] abbreviates: measured here: cell number channel AC50, cells fed with added oleic acid.
Where [2] appears, read: measured here: lipid fluorescence (Fed channel) AC50, cells fed with added oleic acid.

Consider `CCc1ccc(/C=N/NC(=O)c2c[nH]c3ccccc23)s1`, for which the cell number change was 44.1%. For the same molecule, under setting [1], the AC50 was 3.26 µM [rising, partial curve]. For the same molecule, the AC50 under setting [2] is 2.91 µM [rising, partial curve].

Consider `Cc1ccc(-c2nnc(SCC(=O)NNC(=O)COc3ccccc3C)n2C)cc1`, for which the cell number change is -42.7%. The AC50 under setting [1] was 5.8 µM [falling, partial curve]. The AC50 under setting [2] is 1.03 µM [falling, full curve, poor fit].

Regarding `CCOC(=O)N1CCN(C(=S)NC(=O)c2cncc(Br)c2)CC1`, the cell number change is -16.7%. Besides, the AC50 under setting [1] is 0.206 µM [falling, full curve, poor fit].

Take `CCN(CC)C(=S)Nc1ccc(OC(F)F)cc1`: the cell number change is -90.5%. Besides, under setting [1], the AC50 is 18.4 µM [falling, single point].

Take `Cc1ccc(C)c(NC(=O)C2Cc3ccccc3CN2C(=O)OCc2ccccc2)c1` (stereo not drawn): the AC50 under setting [1] is 0.058 µM [rising, full curve, poor fit] and the concentration at half-maximal activity (AC50) under setting [2] was 0.0731 µM [rising, full curve, poor fit].

Regarding `Cc1ccc(NC(=O)C2CCCN2C(=O)Oc2ccccc2)c(C)c1` (stereo not drawn), the cell number change was 14.6%.

On to `CCCCNC(=O)Nc1ccc(Br)cn1`, for which the cell number change was -36.2%. Besides, under setting [1], the AC50 was 29.1 µM [falling, single point].

Take `O=C(COc1ccccc1)NCc1cccs1`: the cell number change is -4.52%. The AC50 under setting [2] was 32.6 µM [falling, single point].

As to `O=C(O)CN1C(=O)SC(Nc2ccc(Cl)cc2)C1=O` (stereo not drawn), the cell number change was determined as 14.2%.

Take `CCN(C(=O)COC(=O)c1ccc(C)c(S(=O)(=O)N2CCOCC2)c1)C1CCS(=O)(=O)C1` (stereo not drawn): the cell number change is -10.9%. Under setting [2], the AC50 was 10.3 µM [falling, single point].

As for `O=C(CN(Cc1ccccc1)S(=O)(=O)c1ccc2c(c1)OCCO2)N/N=C/c1cccc(Br)c1`, the cell number change was determined as 27%. For the same molecule, under setting [2], the AC50 was 0.184 µM [rising, full curve].

`O=[N+]([O-])c1cc(S(=O)(=O)Nc2ccccc2)ccc1-n1nnc2ccccc21`: the cell number change is -6.77%. The AC50 under setting [2] was 0.00517 µM [rising, full curve, poor fit].

As for `Cc1cn(-c2cc(C(=O)Nc3ccc(C)c(NC(=O)C(=O)c4c[nH]c5ccccc45)c3)cc(C(F)(F)F)c2)cn1`, the cell number change was -42.9%. Moreover, under setting [1], the AC50 was 25.9 µM [falling, single point]. Moreover, the AC50 under setting [2] is 29.1 µM [falling, single point].

`Cc1sc2nc(SCc3ccc(C(=O)O)cc3)n(Cc3ccco3)c(=O)c2c1C`: the cell number change was 4.27%.

In the case of `Cc1ccc(N2C(=O)N(c3ccc(C)cc3)C3CS(=O)(=O)CC32)cc1` (stereo not drawn), the cell number change amounted to 41.4%. In addition, under setting [1], the AC50 was 8.2 µM [rising, partial curve]. For the same molecule, the concentration at half-maximal activity (AC50) under setting [2] was 10.3 µM [rising, partial curve, poor fit].

Turning to `CCC(C)(C(=O)NC1CCCCC1)N(C)C(=O)c1ccc2c(c1)OCO2` (stereo not drawn), the cell number change turned out to be 16.4%. For the same molecule, under setting [2], the AC50 is 0.58 µM [rising, single point].

Regarding `CCn1c(=O)c(C(=O)NCc2ccccn2)c(O)c2ccccc21`, the cell number change was -11%. Moreover, under setting [2], the AC50 was 1.03 µM [rising, partial curve].

`CC1CC(=O)N(CC(=O)Nc2cccc(F)c2)c2ccccc2S1(=O)=O` (stereo not drawn): the cell number change is -36.8%. Also, under setting [1], the AC50 was 29.1 µM [falling, single point].

Turning to `CN(C)S(=O)(=O)c1ccc(N2CCCC2)c(C(=O)N2CCN(S(=O)(=O)c3cccc(F)c3)CC2)c1`, the cell number change came to 28.5%.

Regarding `CCCCOc1ccc2c(C)cc(=O)oc2c1OCCCC`, the cell number change was -29.2%. Further, the AC50 under setting [2] was 29.1 µM [falling, single point].

Turning to `Cc1c(CC(=O)N[C@@H](C)C(=O)O)c(=O)oc2c(C)c3occ(-c4ccccc4)c3cc12`, the cell number change came out at 27%. In addition, the half-maximal activity concentration (AC50) under setting [2] was 4.11 µM [rising, partial curve, poor fit].

Turning to `O=C(Nc1nc(-c2ccccc2)cs1)C1CCCCN1S(=O)(=O)c1ccc(Cl)cc1` (stereo not drawn), the cell number change was determined as 12.1%. Under setting [2], the AC50 is 0.291 µM [rising, partial curve, poor fit].

On to `COc1ccc(-n2nc(C(=O)NCC(=O)N3CCN(Cc4ccc5c(c4)OCO5)CC3)c3ccccc3c2=O)cc1OC`, for which the cell number change stood at 62.3%. In addition, the AC50 under setting [1] was 25.9 µM [rising, single point].

Regarding `CCOC(=O)C(Cc1ccc(NC(=O)/C(=C/c2ccccc2)NC(=O)c2ccccc2)cc1)N1C(=O)c2ccccc2C1=O` (stereo not drawn), the cell number change is -2.62%. Also, under setting [2], the half-maximal activity concentration (AC50) is 3.66 µM [falling, full curve].

In the case of `CCSc1nc2nn(-c3ccccc3)c(=O)c-2c2n1CCCCC2`, the cell number change was determined as 38.2%.

Take `CC(=O)c1sc(NC(=O)C2CCN(C(=O)c3ccc(F)cc3)CC2)nc1-c1ccccc1`: the cell number change is -50%. Further, under setting [1], the concentration at half-maximal activity (AC50) was 0.058 µM [falling, full curve].

As to `Cc1ccc(NC(=O)CCN2C(=O)NC3(CCCC3)C2=O)cc1S(=O)(=O)N1CCOCC1`, the cell number change was 6.38%. In addition, under setting [2], the half-maximal activity concentration (AC50) is 0.00461 µM [rising, full curve, poor fit].

With `COc1ccc(N2CCN(C(CNC(=O)CC(C)(C)C)c3ccc4c(c3)OCO4)CC2)cc1` (stereo not drawn), the cell number change was -7.03%. The AC50 under setting [2] is 11.6 µM [rising, partial curve].

Regarding `CCn1c2ccccc2c2cc(NC(=O)CSc3nnc(-c4ccccc4)o3)ccc21`, the cell number change came out at 36.1%. Moreover, under setting [1], the AC50 is 0.58 µM [rising, full curve, poor fit]. Besides, under setting [2], the AC50 is 3.66 µM [rising, partial curve].

Regarding `COCCNc1ccc([N+](=O)[O-])cc1C(=O)NC1CCCc2ccccc21` (stereo not drawn), the cell number change is -0.952%. For the same molecule, the AC50 under setting [2] is 29.1 µM [rising, single point].

Consider `O=C(COC(=O)C1CC1)NCCNC(=O)COC(=O)C1CC1`, for which the cell number change was -18.5%. Further, the AC50 under setting [1] was 2.91 µM [falling, single point]. The AC50 under setting [2] was 2.91 µM [falling, full curve].

Consider `O=C(CCSc1nnc(-c2ccncc2)o1)Nc1ccccc1`, for which the cell number change was -85.1%. Under setting [1], the AC50 is 23.1 µM [falling, partial curve].

Take `CCCN1CCN(C(=O)C2CCN(S(=O)(=O)c3c(C)noc3/C=C/c3ccc(C)cc3)CC2)CC1`: the cell number change came to 25.1%. In addition, under setting [1], the AC50 was 2.06 µM [rising, full curve, poor fit]. For the same molecule, the AC50 under setting [2] was 6.51 µM [falling, single point].

As for `CC(OC(=O)c1ccc2c(c1)OCCO2)C(=O)NC1CCCCC1C` (stereo not drawn), the cell number change is -50.2%. Also, under setting [1], the half-maximal activity concentration (AC50) was 25.9 µM [falling, single point].

As for `COc1cc(OC)c(C(=O)OCC(=O)Nc2nnc(-c3ccccc3)o2)cc1OC`, the cell number change was 19.1%. Further, under setting [1], the AC50 is 0.0116 µM [rising, full curve, poor fit]. For the same molecule, the AC50 under setting [2] is 0.00517 µM [rising, full curve, poor fit].
